In the supplement of paper PMC12823440, “Inhibitors supercharge kinase turnover through native proteolytic circuits” (Nature, 2025):
Counter-ions that a name gives are not always drawn. Some of the results follow. Hit calls seldom repeat between salt and free forms of one compound.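 Kinases, fused to nanoluciferase, were expressed in K562 cells; luminescence was measured every 4 h from 2 to 18 h as percent of control (DMSO = 100%, positive control = 0%). A time point is decreased if signal falls significantly (2 sigma). Hits were called by the authors by a rule that is not shown; the count of time points alone does not decide it.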

Sequences of proteins named here, by UniProt entry; tags and fusion partners are left off. A change or cut given only in a name is not applied to a line headed by its entry.
UniProt O75460: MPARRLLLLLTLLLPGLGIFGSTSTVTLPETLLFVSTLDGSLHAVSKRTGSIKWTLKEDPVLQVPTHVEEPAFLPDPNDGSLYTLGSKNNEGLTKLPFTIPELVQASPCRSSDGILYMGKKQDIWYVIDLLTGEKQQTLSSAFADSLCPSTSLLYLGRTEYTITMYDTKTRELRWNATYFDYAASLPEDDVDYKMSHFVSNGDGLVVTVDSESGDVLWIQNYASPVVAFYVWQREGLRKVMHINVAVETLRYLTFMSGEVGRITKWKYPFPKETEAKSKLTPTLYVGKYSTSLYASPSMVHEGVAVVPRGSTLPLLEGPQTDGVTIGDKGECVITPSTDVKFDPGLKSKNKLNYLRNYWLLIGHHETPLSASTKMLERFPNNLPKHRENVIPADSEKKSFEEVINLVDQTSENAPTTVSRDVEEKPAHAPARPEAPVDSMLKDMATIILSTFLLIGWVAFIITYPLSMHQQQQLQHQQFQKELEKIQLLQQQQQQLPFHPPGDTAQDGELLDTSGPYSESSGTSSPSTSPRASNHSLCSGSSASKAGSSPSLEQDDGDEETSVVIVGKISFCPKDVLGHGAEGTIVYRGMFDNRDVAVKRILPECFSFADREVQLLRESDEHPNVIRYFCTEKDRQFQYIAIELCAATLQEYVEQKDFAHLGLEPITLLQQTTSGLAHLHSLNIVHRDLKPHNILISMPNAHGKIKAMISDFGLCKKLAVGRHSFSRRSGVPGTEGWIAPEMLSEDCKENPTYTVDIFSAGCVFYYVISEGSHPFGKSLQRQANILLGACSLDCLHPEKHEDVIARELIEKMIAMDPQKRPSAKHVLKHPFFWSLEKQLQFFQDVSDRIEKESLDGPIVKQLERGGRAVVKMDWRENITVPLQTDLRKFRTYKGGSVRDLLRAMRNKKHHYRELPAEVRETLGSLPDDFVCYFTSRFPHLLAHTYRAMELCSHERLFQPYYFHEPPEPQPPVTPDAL
UniProt P11362, whole entry, looked up: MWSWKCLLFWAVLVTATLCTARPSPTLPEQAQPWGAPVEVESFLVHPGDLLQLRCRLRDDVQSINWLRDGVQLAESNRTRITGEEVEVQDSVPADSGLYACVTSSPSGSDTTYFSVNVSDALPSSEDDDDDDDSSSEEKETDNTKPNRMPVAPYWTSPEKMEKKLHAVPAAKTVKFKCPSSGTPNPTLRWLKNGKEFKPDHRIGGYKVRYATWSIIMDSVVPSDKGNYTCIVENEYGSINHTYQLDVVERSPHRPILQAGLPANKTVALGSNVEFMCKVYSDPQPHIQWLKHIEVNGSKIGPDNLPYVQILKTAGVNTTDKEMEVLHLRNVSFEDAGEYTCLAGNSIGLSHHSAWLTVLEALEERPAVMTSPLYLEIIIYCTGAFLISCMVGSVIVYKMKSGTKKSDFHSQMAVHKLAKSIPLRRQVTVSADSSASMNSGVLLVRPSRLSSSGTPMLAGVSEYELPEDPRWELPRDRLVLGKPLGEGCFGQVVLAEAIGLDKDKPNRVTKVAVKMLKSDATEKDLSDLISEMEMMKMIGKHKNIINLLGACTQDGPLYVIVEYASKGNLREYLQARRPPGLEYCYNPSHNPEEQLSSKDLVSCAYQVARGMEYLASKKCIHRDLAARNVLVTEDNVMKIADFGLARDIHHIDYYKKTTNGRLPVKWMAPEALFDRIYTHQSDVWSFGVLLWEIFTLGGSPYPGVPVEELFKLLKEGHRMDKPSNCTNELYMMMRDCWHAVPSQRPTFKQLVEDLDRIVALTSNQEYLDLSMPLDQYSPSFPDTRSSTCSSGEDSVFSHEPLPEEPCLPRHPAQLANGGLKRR

target: ERN1 (UniProt O75460); test: kinase-Nluc reporter destabilization hit call (1 = scored as downregulated) (binary); higher = compound decreases kinase abundance; conditions: K562; 2-18 h

| Compound | kinase-Nluc reporter destabilization hit call |
| --- | --- |
| C[C@H]1CC[C@]2(NC1)O[C@H]1C[C@H]3[C@@H]4CC[C@H]5C[C@@H](O)CC[C@]5(C)[C@H]4CC[C@]3(C)[C@H]1[C@@H]2C [Tomatidine] (2 µM) | inactive: 0 |
| O=Cc1cn(Cc2ccc(Cl)cc2)c2ccccc12 [Oncrasin-1] (10 µM) | inactive: 0 |
| O=[N+]([O-])/C=C/c1ccc2c(c1)OCO2 (2.5 µM) | inactive: 0 |
| CCN1CCN(C(=O)Cc2ccc(Nc3ncc(F)c(Nc4ccc(C(=O)Nc5ccccc5Cl)cc4)n3)cc2)CC1 (2.5 µM) | inactive: 0 |
| COc1ccc2c(c[n+](C)c3c4cc5c(cc4ccc23)OCO5)c1OC [Chelerythrine (chloride)] (10 µM) | inactive: 0 |
| COC[C@H]1OC(=O)c2coc3c2[C@@]1(C)C1=C(C3=O)[C@@H]2CCC(=O)[C@@]2(C)C[C@H]1OC(C)=O [Wortmannin] (2.5 µM) | inactive: 0 |
| C[C@H]1CC[C@]2(NC1)O[C@H]1C[C@H]3[C@@H]4CC[C@H]5C[C@@H](O)CC[C@]5(C)[C@H]4CC[C@]3(C)[C@H]1[C@@H]2C [Tomatidine (hydrochloride)] (10 µM) | inactive: 0 |
| COc1ccc(/C=C/c2cc(OC)c(OC)c(OC)c2)cc1 (2.5 µM) | inactive: 0 |
| O=c1cc(O)c2ccccc2o1 [4-Hydroxycoumarin] (10 µM) | inactive: 0 |
| C=CC(=O)N[C@H]1C=C(C)c2c(-c3cnc4ccccc4c3)c3c(N)ncnc3n2C1 (10 µM) | inactive: 0 |
| N#CC(C#N)=Cc1ccc([N+](=O)[O-])c(O)c1 (10 µM) | inactive: 0 |
| O=C(O)c1sc2cc(Cl)ccc2c1Cl (10 µM) | inactive: 0 |
| Cc1n[nH]cc1-c1cc2nc([C@@H]3CC4CCN3CC4)[nH]c(=O)c2s1 [Simurosertib] (2.5 µM) | inactive: 0 |
| Cn1cc(C2=C(c3cn(C4CCN(Cc5ccccn5)CC4)c4ccccc34)C(=O)NC2=O)c2ccccc21 [Enzastaurin] (10 µM) | inactive: 0 |
| CN(C)C(=O)c1ccc(Cn2c(C(=O)O)cc3c(Br)cc(Sc4ccc(Cl)c(Cl)c4)cc32)cc1 [Rheb inhibitor NR1] (10 µM) | inactive: 0 |
| C/C(O)=C(\C#N)C(=O)Nc1cc(Br)ccc1Br (10 µM) | inactive: 0 |
| O=C1c2ccccc2C(=O)c2c1cccc2-c1cnn(C2CCNCC2)c1 [PDK4-IN-1 (hydrochloride)] (10 µM) | inactive: 0 |
| COc1ccc(N(C(=O)Oc2c(C)cccc2C)c2ccnc(Nc3ccc(N4CCN(C)CC4)cc3)n2)c(OC)c1 (2.5 µM) | inactive: 0 |
| C[C@@H]1CC[C@H]2[C@@H](C)C(=O)O[C@@H]3O[C@@]4(C)CC[C@@H]1[C@]32OO4 [Artemisinin] (10 µM) | active: 1 |
| CC(C)(C)c1cc(C=C(C#N)C#N)cc(Br)c1O (2.5 µM) | inactive: 0 |
| CC1=C[C@]23C(=O)[C@@H](C=C(CO)[C@@H](O)[C@]2(O)[C@H]1O)[C@H]1[C@@H](C[C@H]3C)C1(C)C [Ingenol] (10 µM) | inactive: 0 |

target: FGFR1 (UniProt P11362); test: as above; conditions: K562; 2-18 h

| Compound | kinase-Nluc reporter destabilization hit call |
| --- | --- |
| O=c1[nH]c2ccccc2n1C1CCN(Cc2ccc(-c3[nH]c4cc5ncnc5cc4nc3-c3ccccc3)cc2)CC1 [AKT inhibitor VIII] (2.5 µM) | inactive: 0 |
| C[C@H]1CC[C@]2(NC1)O[C@H]1C[C@H]3[C@@H]4CC[C@H]5C[C@@H](O[C@@H]6O[C@H](CO)[C@H](O[C@@H]7O[C@H](CO)[C@@H](O)[C@H](O[C@@H]8OC[C@@H](O)[C@H](O)[C@H]8O)[C@H]7O[C@@H]7O[C@H](CO)[C@@H](O)[C@H](O)[C@H]7O)[C@H](O)[C@H]6O)CC[C@]5(C)[C@H]4CC[C@]3(C)[C@H]1[C@@H]2C [Tomatine] (2.5 µM) | active: 1 |
| C=C[C@H]1CN2CC[C@]3(C(=O)Nc4ccccc43)[C@@H]2C[C@@H]1/C(=C\OC)C(=O)OC [Corynoxeine] (2 µM) | inactive: 0 |
| C=CC(=O)Nc1ccc2[nH]c(=O)n(C3CCN(Cc4ccc(-c5nc6cc[nH]c(=O)c6cc5-c5ccccc5)cc4)CC3)c2c1 [Borussertib] (10 µM) | inactive: 0 |
| CCOC(=O)c1c(/C(C#N)=C\N)c2ccc(Cl)c(Cl)c2n1C (10 µM) | inactive: 0 |
| CC(=O)OC(C)(C)/C=C/C(=O)[C@](C)(O)[C@H]1[C@H](O)C[C@@]2(C)[C@@H]3CC=C4[C@@H](C=C(O)C(=O)C4(C)C)[C@]3(C)C(=O)C[C@]12C [Cucurbitacin E] (2.5 µM) | inactive: 0 |
| Cc1[nH]ncc1-c1cc2nc([C@H]3CC4CCN3CC4)[nH]c(=O)c2s1 [(R)-Simurosertib] (10 µM) | inactive: 0 |
| C[C@H]1CC[C@]2(NC1)O[C@H]1C[C@H]3[C@@H]4CC[C@H]5C[C@@H](O)CC[C@]5(C)[C@H]4CC[C@]3(C)[C@H]1[C@@H]2C [Tomatidine] (2 µM) | inactive: 0 |
| O=Cc1cn(Cc2ccc(Cl)cc2)c2ccccc12 [Oncrasin-1] (10 µM) | inactive: 0 |
| O=[N+]([O-])/C=C/c1ccc2c(c1)OCO2 (2.5 µM) | inactive: 0 |
| CCN1CCN(C(=O)Cc2ccc(Nc3ncc(F)c(Nc4ccc(C(=O)Nc5ccccc5Cl)cc4)n3)cc2)CC1 (2.5 µM) | inactive: 0 |
| COc1ccc2c(c[n+](C)c3c4cc5c(cc4ccc23)OCO5)c1OC [Chelerythrine (chloride)] (10 µM) | inactive: 0 |
| COC[C@H]1OC(=O)c2coc3c2[C@@]1(C)C1=C(C3=O)[C@@H]2CCC(=O)[C@@]2(C)C[C@H]1OC(C)=O [Wortmannin] (2.5 µM) | inactive: 0 |
| C[C@H]1CC[C@]2(NC1)O[C@H]1C[C@H]3[C@@H]4CC[C@H]5C[C@@H](O)CC[C@]5(C)[C@H]4CC[C@]3(C)[C@H]1[C@@H]2C [Tomatidine (hydrochloride)] (10 µM) | inactive: 0 |
| COc1ccc(/C=C/c2cc(OC)c(OC)c(OC)c2)cc1 (2.5 µM) | inactive: 0 |
| O=c1cc(O)c2ccccc2o1 [4-Hydroxycoumarin] (10 µM) | inactive: 0 |
| C=CC(=O)N[C@H]1C=C(C)c2c(-c3cnc4ccccc4c3)c3c(N)ncnc3n2C1 (10 µM) | inactive: 0 |
| N#CC(C#N)=Cc1ccc([N+](=O)[O-])c(O)c1 (10 µM) | inactive: 0 |
| O=C(O)c1sc2cc(Cl)ccc2c1Cl (10 µM) | inactive: 0 |
| Cc1n[nH]cc1-c1cc2nc([C@@H]3CC4CCN3CC4)[nH]c(=O)c2s1 [Simurosertib] (2.5 µM) | inactive: 0 |
| Cn1cc(C2=C(c3cn(C4CCN(Cc5ccccn5)CC4)c4ccccc34)C(=O)NC2=O)c2ccccc21 [Enzastaurin] (10 µM) | inactive: 0 |
| CN(C)C(=O)c1ccc(Cn2c(C(=O)O)cc3c(Br)cc(Sc4ccc(Cl)c(Cl)c4)cc32)cc1 [Rheb inhibitor NR1] (10 µM) | inactive: 0 |
| C/C(O)=C(\C#N)C(=O)Nc1cc(Br)ccc1Br (10 µM) | inactive: 0 |
| O=C1c2ccccc2C(=O)c2c1cccc2-c1cnn(C2CCNCC2)c1 [PDK4-IN-1 (hydrochloride)] (10 µM) | inactive: 0 |
| COc1ccc(N(C(=O)Oc2c(C)cccc2C)c2ccnc(Nc3ccc(N4CCN(C)CC4)cc3)n2)c(OC)c1 (2.5 µM) | inactive: 0 |
| C[C@@H]1CC[C@H]2[C@@H](C)C(=O)O[C@@H]3O[C@@]4(C)CC[C@@H]1[C@]32OO4 [Artemisinin] (10 µM) | inactive: 0 |
| CC(C)(C)c1cc(C=C(C#N)C#N)cc(Br)c1O (2.5 µM) | inactive: 0 |
| CC1=C[C@]23C(=O)[C@@H](C=C(CO)[C@@H](O)[C@]2(O)[C@H]1O)[C@H]1[C@@H](C[C@H]3C)C1(C)C [Ingenol] (10 µM) | inactive: 0 |
